Data taken from the supplement of paper PMC11732987, “Enantioselective OTUD7B fragment discovery through chemoproteomics screening and high-throughput optimisation” (Communications Chemistry, 2025).
The other results are listed elsewhere or left out. The data scatter; read single values as rough.

By UniProt entry, the sequences of proteins in these tests, tags left out. Where a name states a change or a piece, a line headed by the entry shows the natural chain unless it says otherwise. Residues count along the entry.
UniProt Q03164, 2071-2093: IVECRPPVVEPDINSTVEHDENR
UniProt Q9UMN6, whole entry, looked up: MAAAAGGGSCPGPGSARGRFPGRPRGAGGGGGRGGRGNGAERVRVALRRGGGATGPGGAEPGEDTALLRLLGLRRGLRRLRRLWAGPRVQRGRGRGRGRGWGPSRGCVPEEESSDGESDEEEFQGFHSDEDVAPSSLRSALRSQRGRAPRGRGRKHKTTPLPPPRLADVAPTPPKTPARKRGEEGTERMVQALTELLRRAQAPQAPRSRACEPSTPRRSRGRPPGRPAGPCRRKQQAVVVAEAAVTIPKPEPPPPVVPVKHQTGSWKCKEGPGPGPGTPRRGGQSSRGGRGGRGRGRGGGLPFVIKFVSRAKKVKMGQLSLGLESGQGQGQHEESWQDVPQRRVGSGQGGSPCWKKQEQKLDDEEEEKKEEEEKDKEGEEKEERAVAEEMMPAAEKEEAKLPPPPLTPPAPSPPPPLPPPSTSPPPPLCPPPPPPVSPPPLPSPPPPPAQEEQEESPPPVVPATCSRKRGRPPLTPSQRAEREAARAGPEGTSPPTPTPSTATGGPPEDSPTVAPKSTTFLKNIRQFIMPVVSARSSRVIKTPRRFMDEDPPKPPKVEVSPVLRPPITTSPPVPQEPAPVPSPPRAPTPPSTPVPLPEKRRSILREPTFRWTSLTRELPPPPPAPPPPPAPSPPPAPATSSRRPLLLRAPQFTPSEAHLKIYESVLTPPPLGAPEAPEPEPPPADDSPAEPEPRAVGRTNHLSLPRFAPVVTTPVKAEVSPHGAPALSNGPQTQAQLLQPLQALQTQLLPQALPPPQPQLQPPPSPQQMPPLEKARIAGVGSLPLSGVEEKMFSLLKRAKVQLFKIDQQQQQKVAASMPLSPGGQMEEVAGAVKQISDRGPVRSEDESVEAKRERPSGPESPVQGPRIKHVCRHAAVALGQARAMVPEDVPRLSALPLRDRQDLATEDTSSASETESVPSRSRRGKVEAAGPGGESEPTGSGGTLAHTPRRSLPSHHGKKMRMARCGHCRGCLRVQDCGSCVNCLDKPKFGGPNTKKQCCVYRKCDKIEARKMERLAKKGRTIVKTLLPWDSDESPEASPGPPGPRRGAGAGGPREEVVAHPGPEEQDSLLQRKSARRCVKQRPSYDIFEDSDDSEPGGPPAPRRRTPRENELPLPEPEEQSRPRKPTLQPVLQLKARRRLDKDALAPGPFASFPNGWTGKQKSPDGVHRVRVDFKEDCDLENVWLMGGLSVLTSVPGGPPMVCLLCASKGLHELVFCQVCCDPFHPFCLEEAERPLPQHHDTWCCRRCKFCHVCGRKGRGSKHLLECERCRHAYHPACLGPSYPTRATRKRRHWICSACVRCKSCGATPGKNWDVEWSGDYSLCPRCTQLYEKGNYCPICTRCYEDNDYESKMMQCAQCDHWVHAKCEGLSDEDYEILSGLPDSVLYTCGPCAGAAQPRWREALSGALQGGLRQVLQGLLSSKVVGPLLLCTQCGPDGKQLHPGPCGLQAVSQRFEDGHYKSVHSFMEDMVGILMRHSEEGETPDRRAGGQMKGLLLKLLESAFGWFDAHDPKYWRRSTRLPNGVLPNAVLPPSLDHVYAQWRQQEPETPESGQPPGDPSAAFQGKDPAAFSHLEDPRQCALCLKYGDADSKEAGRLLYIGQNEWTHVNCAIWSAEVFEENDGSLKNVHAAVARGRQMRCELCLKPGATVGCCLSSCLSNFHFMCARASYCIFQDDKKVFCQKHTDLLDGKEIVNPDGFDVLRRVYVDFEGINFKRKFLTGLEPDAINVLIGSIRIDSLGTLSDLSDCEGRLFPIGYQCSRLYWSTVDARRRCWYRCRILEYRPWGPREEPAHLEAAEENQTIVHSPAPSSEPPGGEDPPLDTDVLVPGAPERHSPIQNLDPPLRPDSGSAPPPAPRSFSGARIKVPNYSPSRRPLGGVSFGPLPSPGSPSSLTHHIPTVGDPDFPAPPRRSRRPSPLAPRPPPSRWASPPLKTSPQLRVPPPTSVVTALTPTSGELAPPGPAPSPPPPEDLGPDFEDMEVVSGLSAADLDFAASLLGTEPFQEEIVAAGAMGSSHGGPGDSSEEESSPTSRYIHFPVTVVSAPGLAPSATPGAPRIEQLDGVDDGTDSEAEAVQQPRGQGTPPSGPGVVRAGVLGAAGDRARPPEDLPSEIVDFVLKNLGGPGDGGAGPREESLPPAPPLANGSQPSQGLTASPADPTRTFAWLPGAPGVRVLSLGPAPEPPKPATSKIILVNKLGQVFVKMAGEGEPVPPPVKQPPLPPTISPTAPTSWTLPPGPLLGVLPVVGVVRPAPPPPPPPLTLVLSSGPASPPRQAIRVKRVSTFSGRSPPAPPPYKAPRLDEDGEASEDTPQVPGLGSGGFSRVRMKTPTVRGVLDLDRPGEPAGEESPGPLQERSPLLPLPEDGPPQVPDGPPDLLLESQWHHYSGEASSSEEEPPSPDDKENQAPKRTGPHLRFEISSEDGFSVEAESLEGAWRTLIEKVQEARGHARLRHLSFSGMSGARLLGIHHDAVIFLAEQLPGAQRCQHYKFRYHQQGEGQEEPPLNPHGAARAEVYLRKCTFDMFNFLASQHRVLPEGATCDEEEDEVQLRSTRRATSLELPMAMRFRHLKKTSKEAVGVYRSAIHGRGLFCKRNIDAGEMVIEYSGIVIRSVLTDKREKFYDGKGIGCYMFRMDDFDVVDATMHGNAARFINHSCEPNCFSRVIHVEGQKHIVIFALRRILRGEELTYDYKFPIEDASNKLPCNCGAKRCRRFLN
UniProt P49917: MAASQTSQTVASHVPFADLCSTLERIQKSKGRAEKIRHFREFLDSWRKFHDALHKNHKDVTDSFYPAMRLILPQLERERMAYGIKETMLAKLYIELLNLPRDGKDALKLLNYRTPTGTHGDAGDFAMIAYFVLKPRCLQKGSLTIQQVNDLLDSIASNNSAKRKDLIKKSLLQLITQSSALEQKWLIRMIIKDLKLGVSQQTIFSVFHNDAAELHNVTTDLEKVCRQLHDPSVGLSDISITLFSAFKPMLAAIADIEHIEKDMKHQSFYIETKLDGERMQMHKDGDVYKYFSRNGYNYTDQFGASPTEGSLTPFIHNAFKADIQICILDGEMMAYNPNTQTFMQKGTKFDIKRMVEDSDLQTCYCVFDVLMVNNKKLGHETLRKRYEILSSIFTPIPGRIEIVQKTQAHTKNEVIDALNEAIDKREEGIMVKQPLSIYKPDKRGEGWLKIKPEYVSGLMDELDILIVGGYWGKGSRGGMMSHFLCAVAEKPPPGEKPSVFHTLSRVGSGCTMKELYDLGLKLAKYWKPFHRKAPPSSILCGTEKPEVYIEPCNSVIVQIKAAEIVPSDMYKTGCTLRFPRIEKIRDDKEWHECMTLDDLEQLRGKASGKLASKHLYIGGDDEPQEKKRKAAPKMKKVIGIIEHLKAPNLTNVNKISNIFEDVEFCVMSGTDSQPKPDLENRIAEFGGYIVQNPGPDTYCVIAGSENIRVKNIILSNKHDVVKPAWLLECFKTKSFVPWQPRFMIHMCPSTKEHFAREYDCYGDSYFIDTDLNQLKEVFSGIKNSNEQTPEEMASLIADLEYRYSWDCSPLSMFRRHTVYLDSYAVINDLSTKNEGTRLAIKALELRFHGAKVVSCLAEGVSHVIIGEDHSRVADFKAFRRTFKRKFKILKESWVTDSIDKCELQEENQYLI
UniProt Q7L5N7, 206-226: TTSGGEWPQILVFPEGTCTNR
UniProt Q8NG31: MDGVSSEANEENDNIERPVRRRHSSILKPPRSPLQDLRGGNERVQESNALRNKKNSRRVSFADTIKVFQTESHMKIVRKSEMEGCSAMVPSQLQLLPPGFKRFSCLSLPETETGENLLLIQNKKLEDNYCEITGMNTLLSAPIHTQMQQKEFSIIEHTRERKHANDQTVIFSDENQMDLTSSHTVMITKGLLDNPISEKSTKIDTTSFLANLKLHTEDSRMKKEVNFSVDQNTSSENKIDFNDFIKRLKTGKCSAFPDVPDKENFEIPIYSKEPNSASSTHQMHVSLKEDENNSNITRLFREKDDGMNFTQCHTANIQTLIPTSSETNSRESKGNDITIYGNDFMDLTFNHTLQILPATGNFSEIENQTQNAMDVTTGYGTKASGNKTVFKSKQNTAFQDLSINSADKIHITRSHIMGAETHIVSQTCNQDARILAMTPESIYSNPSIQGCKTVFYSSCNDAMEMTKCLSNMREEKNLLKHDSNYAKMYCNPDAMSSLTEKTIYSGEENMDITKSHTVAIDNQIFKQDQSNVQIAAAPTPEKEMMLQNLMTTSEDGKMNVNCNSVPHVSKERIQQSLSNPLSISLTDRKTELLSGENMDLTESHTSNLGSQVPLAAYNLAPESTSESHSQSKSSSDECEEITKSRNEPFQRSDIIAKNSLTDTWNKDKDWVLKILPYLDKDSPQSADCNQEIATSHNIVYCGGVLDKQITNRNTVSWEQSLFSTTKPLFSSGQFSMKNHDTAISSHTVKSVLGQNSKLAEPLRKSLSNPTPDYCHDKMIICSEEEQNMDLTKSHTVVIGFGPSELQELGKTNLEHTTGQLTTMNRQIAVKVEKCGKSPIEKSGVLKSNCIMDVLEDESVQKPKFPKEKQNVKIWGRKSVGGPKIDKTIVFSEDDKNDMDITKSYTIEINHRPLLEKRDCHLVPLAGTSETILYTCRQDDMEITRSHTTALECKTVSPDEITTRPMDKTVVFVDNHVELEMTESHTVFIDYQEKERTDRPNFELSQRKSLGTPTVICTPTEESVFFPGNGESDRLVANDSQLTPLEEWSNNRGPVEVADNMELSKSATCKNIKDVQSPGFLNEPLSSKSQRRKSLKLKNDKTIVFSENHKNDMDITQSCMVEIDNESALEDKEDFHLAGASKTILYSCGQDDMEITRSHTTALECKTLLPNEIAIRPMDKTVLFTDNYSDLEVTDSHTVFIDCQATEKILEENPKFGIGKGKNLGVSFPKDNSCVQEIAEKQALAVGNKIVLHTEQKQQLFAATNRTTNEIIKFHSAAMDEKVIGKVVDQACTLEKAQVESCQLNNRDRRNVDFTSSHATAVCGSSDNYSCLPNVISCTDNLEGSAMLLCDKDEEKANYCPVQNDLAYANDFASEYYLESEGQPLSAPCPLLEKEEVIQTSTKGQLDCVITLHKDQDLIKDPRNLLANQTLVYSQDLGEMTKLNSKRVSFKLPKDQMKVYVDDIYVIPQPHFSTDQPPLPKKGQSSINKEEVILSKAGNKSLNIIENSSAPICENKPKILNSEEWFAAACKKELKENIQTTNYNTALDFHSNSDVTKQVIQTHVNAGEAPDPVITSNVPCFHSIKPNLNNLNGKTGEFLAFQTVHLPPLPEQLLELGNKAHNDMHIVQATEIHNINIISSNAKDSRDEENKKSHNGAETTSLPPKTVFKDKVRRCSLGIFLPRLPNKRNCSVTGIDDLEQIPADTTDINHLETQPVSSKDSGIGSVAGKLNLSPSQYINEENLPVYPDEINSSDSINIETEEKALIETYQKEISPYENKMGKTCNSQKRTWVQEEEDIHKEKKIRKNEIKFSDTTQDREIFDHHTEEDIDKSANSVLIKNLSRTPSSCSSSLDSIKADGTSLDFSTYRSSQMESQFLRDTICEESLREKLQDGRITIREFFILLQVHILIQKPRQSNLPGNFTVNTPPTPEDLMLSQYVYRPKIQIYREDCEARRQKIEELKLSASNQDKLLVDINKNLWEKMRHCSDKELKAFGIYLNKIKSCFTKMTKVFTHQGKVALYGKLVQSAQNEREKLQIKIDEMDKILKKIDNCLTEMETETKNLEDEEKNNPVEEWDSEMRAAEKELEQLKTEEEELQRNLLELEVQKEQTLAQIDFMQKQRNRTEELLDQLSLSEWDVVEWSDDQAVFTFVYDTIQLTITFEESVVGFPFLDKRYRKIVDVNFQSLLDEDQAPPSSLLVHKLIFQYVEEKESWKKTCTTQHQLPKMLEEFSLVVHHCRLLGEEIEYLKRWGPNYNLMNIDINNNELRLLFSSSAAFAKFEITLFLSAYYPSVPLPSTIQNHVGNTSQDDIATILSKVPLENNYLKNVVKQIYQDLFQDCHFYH
UniProt Q8NC56: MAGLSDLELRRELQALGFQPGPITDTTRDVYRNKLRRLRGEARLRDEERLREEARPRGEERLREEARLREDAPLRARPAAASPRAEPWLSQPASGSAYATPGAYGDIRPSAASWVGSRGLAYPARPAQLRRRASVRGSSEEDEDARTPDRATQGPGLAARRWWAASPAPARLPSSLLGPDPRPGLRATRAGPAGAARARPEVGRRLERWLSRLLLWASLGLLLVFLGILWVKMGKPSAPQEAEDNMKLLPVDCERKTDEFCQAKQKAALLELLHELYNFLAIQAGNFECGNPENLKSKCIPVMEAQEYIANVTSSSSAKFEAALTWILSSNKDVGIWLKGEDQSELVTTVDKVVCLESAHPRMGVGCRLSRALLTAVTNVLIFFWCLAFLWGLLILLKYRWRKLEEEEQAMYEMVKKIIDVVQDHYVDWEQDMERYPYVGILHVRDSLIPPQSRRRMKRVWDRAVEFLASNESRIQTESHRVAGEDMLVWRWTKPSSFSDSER
UniProt Q9C0E8, 148-167: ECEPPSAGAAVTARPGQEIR

compound: ClCC(=O)N[C@@H]1CCCc2ccccc12; assay: log2 mean competition ratio of IA-DTB cysteine labelling (DMSO/compound) (log2 ratio); higher = stronger cysteine engagement by compound; conditions: 50 µM; treatment time: 4 h; cell line lysate: HEK293T
Procedure: (§1)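 IA-DTB competitive cysteine chemoproteomics in HEK293T RIPA lysate. Lysates were treated with compound 29 or 30 at 50 or 200 µM for 4 h, then IA-DTB (500 µM, 1 h), trypsin-digested, NeutrAvidin-enriched and analysed by diaPASEF. Competition ratio = intensity DMSO / intensity compound (n=4 treated, n=64 DMSO); binding: mean log2 CR ≥ 1 and p ≤ 0.05 plus QC filters. Target is the cysteine site.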

Target	log2 mean competition ratio
KIF7 C409	0.08
KMT2A C2074 (UniProt Q03164)	-0.135
LENG8 C500 (UniProt Q96PV6)	-0.0558
KLC2 C474 (UniProt Q9H0B6)	0.0305
LIG1 C565 (UniProt P18858)	-0.206
LEMD3 C838 (UniProt Q9Y2U8)	-0.103
KPNA6 C139 (UniProt O60684)	0.127
LAS1L C256 (UniProt Q9Y4W2)	-0.0916
LIG1 C280 (UniProt P18858)	0.292
KNTC1 C475 (UniProt P50748)	-0.0429
LLGL1 C915 (UniProt Q15334)	-0.0981
KMT2B C1268 (UniProt Q9UMN6)	-0.18
LAP3 C129 (UniProt P28838)	-0.042
LARP1 C238 (UniProt Q6PKG0)	-0.265
LIG4 C510 (UniProt P49917)	-0.149
LOC102724159 C158	0.188
LLGL1 C855 (UniProt Q15334)	0.00863
LPCAT2 C223 (UniProt Q7L5N7)	-0.00836
LIMS1 C222 (UniProt P48059)	0.333

Target	log2 mean competition ratio
LIN9 C435 (UniProt Q5TKA1)	-0.122
LIMS3;LIMS4 C10;(C10)	-0.0545
KNL1 C2216 (UniProt Q8NG31)	0.0264
LONP2 C405 (UniProt Q86WA8)	0.182
KLHL23 C245	-0.039
LAP3 C445 (UniProt P28838)	-0.604
KPNA6 C357 (UniProt O60684)	0.103
KPNB1 C543	-0.115
LEMD2 C355 (UniProt Q8NC56)	0.283
LENG8 C450 (UniProt Q96PV6)	0.232
LMO7 C261 (UniProt Q8WWI1)	-0.0909
KMT2E C839 (UniProt Q8IZD2)	0.138
KIF5B C294 (UniProt P33176)	0.24
LMOD1 C72	0.0334
LNPK C149 (UniProt Q9C0E8)	-0.00949
KTN1 C736	0.000238
KMT2A C2783 (UniProt Q03164)	0.138
KYAT3 C416 (UniProt Q6YP21)	-0.00358

same assay, conditions: 200 µM; treatment time: 4 h; cell line lysate: HEK293T

Target	log2 mean competition ratio
KIF7 C409	0.638
KMT2A C2074 (UniProt Q03164)	-0.248
LENG8 C500 (UniProt Q96PV6)	0.434
KLC2 C474 (UniProt Q9H0B6)	0.0956
LIG1 C565 (UniProt P18858)	0.0213
LEMD3 C838 (UniProt Q9Y2U8)	-0.0567
KPNA6 C139 (UniProt O60684)	0.191
LAS1L C256 (UniProt Q9Y4W2)	0.0537
LIG1 C280 (UniProt P18858)	0.298
KNTC1 C475 (UniProt P50748)	-0.209
LLGL1 C915 (UniProt Q15334)	0.107
KMT2B C1268 (UniProt Q9UMN6)	-0.0888
LAP3 C129 (UniProt P28838)	0.0987
LARP1 C238 (UniProt Q6PKG0)	0.298
LIG4 C510 (UniProt P49917)	0.000745
LOC102724159 C158	0.067
LLGL1 C855 (UniProt Q15334)	0.158
LPCAT2 C223 (UniProt Q7L5N7)	-0.301
LIMS1 C222 (UniProt P48059)	-0.462

Target	log2 mean competition ratio
LIN9 C435 (UniProt Q5TKA1)	0.358
LIMS3;LIMS4 C10;(C10)	-0.102
KNL1 C2216 (UniProt Q8NG31)	-0.0964
LONP2 C405 (UniProt Q86WA8)	0.294
KLHL23 C245	0.00557
LAP3 C445 (UniProt P28838)	0.145
KPNA6 C357 (UniProt O60684)	-0.254
KPNB1 C543	-0.263
LEMD2 C355 (UniProt Q8NC56)	-0.322
LENG8 C450 (UniProt Q96PV6)	-0.185
LMO7 C261 (UniProt Q8WWI1)	-0.00955
KMT2E C839 (UniProt Q8IZD2)	0.242
KIF5B C294 (UniProt P33176)	0.159
LMOD1 C72	-0.241
LNPK C149 (UniProt Q9C0E8)	-0.117
KTN1 C736	-0.188
KMT2A C2783 (UniProt Q03164)	0.383
KYAT3 C416 (UniProt Q6YP21)	-0.0771

compound: ClCC(=O)N[C@H]1CCCc2ccccc12; assay: as above; conditions: 50 µM; treatment time: 4 h; cell line lysate: HEK293T
Procedure: as §1

Target	log2 mean competition ratio
KIF7 C409	0.134
KMT2A C2074 (UniProt Q03164)	-0.312
LENG8 C500 (UniProt Q96PV6)	-0.164
KLC2 C474 (UniProt Q9H0B6)	-0.136
LIG1 C565 (UniProt P18858)	-0.468
LEMD3 C838 (UniProt Q9Y2U8)	0.0526
KPNA6 C139 (UniProt O60684)	0.247
LAS1L C256 (UniProt Q9Y4W2)	-0.0975
LIG1 C280 (UniProt P18858)	-0.195
KNTC1 C475 (UniProt P50748)	0.125
LLGL1 C915 (UniProt Q15334)	-0.0434
KMT2B C1268 (UniProt Q9UMN6)	-0.369
LAP3 C129 (UniProt P28838)	0.014
LARP1 C238 (UniProt Q6PKG0)	-0.0971
LIG4 C510 (UniProt P49917)	-0.16
LOC102724159 C158	0.127
LLGL1 C855 (UniProt Q15334)	0.366
LPCAT2 C223 (UniProt Q7L5N7)	0.204
LIMS1 C222 (UniProt P48059)	0.135

Target	log2 mean competition ratio
LIN9 C435 (UniProt Q5TKA1)	-0.107
LIMS3;LIMS4 C10;(C10)	0.0666
KNL1 C2216 (UniProt Q8NG31)	0.301
LONP2 C405 (UniProt Q86WA8)	0.0144
KLHL23 C245	-0.0685
LAP3 C445 (UniProt P28838)	-0.189
KPNA6 C357 (UniProt O60684)	0.443
KPNB1 C543	0.167
LEMD2 C355 (UniProt Q8NC56)	0.314
LENG8 C450 (UniProt Q96PV6)	0.0504
LMO7 C261 (UniProt Q8WWI1)	-0.351
KMT2E C839 (UniProt Q8IZD2)	0.237
KIF5B C294 (UniProt P33176)	0.107
LMOD1 C72	0.29
LNPK C149 (UniProt Q9C0E8)	-0.852
KTN1 C736	0.0253
KMT2A C2783 (UniProt Q03164)	0.413
KYAT3 C416 (UniProt Q6YP21)	-0.323
